Data reported in patent publication US11629201B2, “PSMA-binding agents and uses thereof” (ITM Isotope Technologies Munich SE, priority 2017, dated 2023).
Some entries share one result that the patent states for a list of compounds.

Legend:
human plasma proteins = assay: Ultrafiltration assay, binding to human plasma proteins
[1] = Stability of radioligands over time by RP-HPLC; type: physicochemical; settings: 64Cu-labeled, room temperature, over at least 4 h
Procedure: Quality control of ^64Cu-labeled PSMA ligands (250 MBq in 120 μL; 50 MBq/nmol) was determined immediately after preparation (t=0 h) using RP-HPLC. The reaction mixtures were diluted in saline to an activity concentration of 250 MBq/500 μL and incubated at room temperature. The integrity of the compounds was investigated over one day (t=1 h, 4 h and 24 h, respectively). The amount of intact radioligand was quantified by integration of the product peak of the HPLC chromatograms in relation to the sum of all radioactive peaks of degradation products of unknown structure and traces of released ^64Cu which were set to 100%.
The stability of the radioligands was determined over time using RP-HPLC. […] The radiolabeling efficiency of the ligands was determined immediately after preparation (t=0 h) and the integrity of the compounds was investigated after incubation for various periods (t=1 h, 4 h and 24 h, respectively) at room temperature. The amount of intact compound was quantified by integration of the product peak of the HPLC chromatograms in relation to the sum of all radioactive peaks of degradation products of unknown structure and traces of free ^177Lu, which were set to 100%.

Structure (SMILES) | plasma protein-bound fraction (human plasma proteins) | intact radioligand [1]
Cc1ccc(CCCC(=O)NCCCCC(NC(=O)CN2CCN(CC(=O)O)CCN(CC(=O)O)CCN(CC(=O)O)CC2)C(=O)NCC2CCC(C(=O)NC(Cc3ccc4ccccc4c3)C(=O)NCCCCC(NC(=O)NC(CCC(=O)O)C(=O)O)C(=O)O)CC2)cc1 (stereo not drawn) [^64Cu-PSMA-ALB-06, metal not drawn] | > 92% | > 92%
Cc1ccc(CCCC(=O)NCCCC[C@H](NC(=O)CCC(C(=O)O)N2CCN(CC(=O)O)CCN(CC(=O)O)CC2)C(=O)NC[C@H]2CC[C@H](C(=O)N[C@H](Cc3ccc4ccccc4c3)C(=O)NCCCC[C@@H](NC(=O)N[C@H](CCC(=O)O)C(=O)O)C(=O)O)CC2)cc1 (stereo partly drawn) [^64Cu-PSMA-ALB-89, metal not drawn] | > 92% | > 92%
O=C(O)CCC(NC(=O)NC(CCCCNC(=O)C(Cc1ccc2ccccc2c1)NC(=O)C1CCC(n2cc(CC(NC(=O)CN3CCN(CC(=O)O)CCN(CC(=O)O)CCN(CC(=O)O)CC3)C(=O)NC(CCCCNC(=O)CCCc3ccc(I)cc3)C(=O)O)nn2)CC1)C(=O)O)C(=O)O (stereo not drawn) [^177Lu-PSMA-ALB-01, metal not drawn] | > 94% | 
O=C(O)CCC(NC(=O)NC(CCCCNC(=O)C(Cc1ccc2ccccc2c1)NC(=O)C1CCC(CNC(=O)C(CCCCNC(=O)CCCc2ccc(I)cc2)NC(=O)CN2CCN(CC(=O)O)CCN(CC(=O)O)CCN(CC(=O)O)CC2)CC1)C(=O)O)C(=O)O (stereo not drawn) [^177Lu-PSMA-ALB-03, metal not drawn] | > 94% | 
O=C(O)CCC(NC(=O)NC(CCCCNC(=O)C(Cc1ccc2ccccc2c1)NC(=O)C1CCC(CNC(=O)C(CCCCNC(=O)CN2CCN(CC(=O)O)CCN(CC(=O)O)CCN(CC(=O)O)CC2)NC(=O)CCCCCCC(=O)NC(CCCCNC(=O)CCCc2ccc(I)cc2)C(=O)O)CC1)C(=O)O)C(=O)O (stereo not drawn) [^177Lu-PSMA-ALB-04, metal not drawn] | > 94% | 
O=C(O)CCC(NC(=O)NC(CCCCNC(=O)C(Cc1ccc2ccccc2c1)NC(=O)C1CCC(CNC(=O)C(CCCCNC(=O)CN2CCN(CC(=O)O)CCN(CC(=O)O)CCN(CC(=O)O)CC2)NC(=O)CC(NC(=O)CC(NC(=O)CCCc2ccc(I)cc2)C(=O)O)C(=O)O)CC1)C(=O)O)C(=O)O (stereo not drawn) [^177Lu-PSMA-ALB-05, metal not drawn] | > 94% | 
O=C(O)CCC(NC(=O)NC(CCCCNC(=O)C(Cc1ccc2ccccc2c1)NC(=O)C1CCC(CNC(=O)C(CCCCNC(=O)CN2CCN(CC(=O)O)CCN(CC(=O)O)CCN(CC(=O)O)CC2)NC(=O)CC(NC(=O)CC(NC(=O)CC(NC(=O)CCCc2ccc(I)cc2)C(=O)O)C(=O)O)C(=O)O)CC1)C(=O)O)C(=O)O (stereo not drawn) [^177Lu-PSMA-ALB-07, metal not drawn] | > 94% | 
